Data on two molecules can be found in US20200216506A1.

Results are given in words; binding and its absence hold for the method and conditions named. Binding seen in cells or lysates may run through a third protein. Binding can be weak; no strength is given.

The target in experiment [1] is 3×FLAG-tagged MyD88 allele. Briefly: anti-FLAG (M2) co-immunoprecipitation from Myd88-/-/Trif-/- iBMDMs expressing 3×FLAG-MyD88, western blot (FIG. 71B).
For experiment [2], the target named is 3×FLAG-tagged TRAF6 allele. Briefly: anti-FLAG (M2) co-immunoprecipitation from TLR-ligand-stimulated iBMDMs expressing 3×FLAG-TRAF6, western blot (FIG. 69C).
For experiment [3], the target named is 3×FLAG-tagged TRAF6 allele. In words: anti-FLAG (M2) co-immunoprecipitation versus control IgG, LPS-stimulated iBMDMs, western blot (FIG. 74B). In general terms: In western blotting, separated proteins are transferred to a membrane and probed.

B1: IRAK2 (enzyme, UniProt Q8CFA1 1-622, looked up)
chain: MACYIYQLPSWVLDDLCRNIDTLSEWDWMQFASYVITDLTQLRKIKSMERVQGVSITRELLWWWSMRQATVQQLVDLLCHLELYRAAQIVLSWKPVPESTSPLPAFPEAVKPGAVATSRRNLKDEQEKVRPVKPRSLLDTGPIMAGAQRQRPCEMDAPCSLKTDAPDSPQSKYCSTSTSAPKQERLLGLPGDRLFWSEADVVQATEDFDQSHRISEGTFADIYQGQRNGVAFAFKKLREVAGSSPGSMDRFLQAEMQLCLRCCHANVLPLLGFCTGRQFHSLIYPYMANGSLHDRLWAQGNSDMLPWPQRASICSGLLLAVEHLHSLDIIHSNVKSANVLLDQHLNPKLAHPVAHPHPDNKKTKYTVMRTHLFQASAAYLPEHFIRVGQLTKQVDIFSCGIVLAEVLTGIPAMDKDRSPVYLKDLLLSEIPNSTSSVCSRKTSMGKAVVKEICQRHVEKRAGLLPEACEEAWATAVSVCLRRRNASVEEARVSLAGVEEQLRGQLSLPWSRVSEATGSSSNTPEETDDVDNSSLSVPSLVMMASCPGAASSPLFTGHGAAQPSTSGRQEADSSSEACTGPQTPQNATETSWKIEINEAKRRLMENIVLYKEERLDSSELFGP
Regarding B1, the binding entry in experiment [1], in experiment [2] and in experiment [3] was “binds” in each case.

B2: TRAF6 (enzyme, UniProt P70196 1-530, looked up)
chain: MSLLNCENSCGSSQSSSDCCAAMAASCSAAVKDDSVSGSASTGNLSSSFMEEIQGYDVEFDPPLESKYECPICLMALREAVQTPCGHRFCKACIIKSIRDAGHKCPVDNEILLENQLFPDNFAKREILSLTVKCPNKGCLQKMELRHLEDHQVHCEFALVNCPQCQRPFQKCQVNTHIIEDCPRRQVSCVNCAVSMAYEEKEIHDQSCPLANIICEYCGTILIREQMPNHYDLDCPTAPIPCTFSVFGCHEKMQRNHLARHLQENTQLHMRLLAQAVHNVNLALRPCDAASPSRGCRPEDPNYEETIKQLESRLVRQDHQIRELTAKMETQSMYVGELKRTIRTLEDKVAEMEAQQCNGIYIWKIGNFGMHLKSQEEERPVVIHSPGFYTGRPGYKLCMRLHLQLPTAQRCANYISLFVHTMQGEYDSHLPWPFQGTIRLTILDQSEALIRQNHEEVMDAKPELLAFQRPTIPRNPKGFGYVTFMHLEALRQGTFIKDDTLLVRCEVSTRFDMGGLRKEGFQPRSTDAGV
In the case of B2, the binding entry in experiment [1] is recorded as “binds”.
